Source: patent publication US20040229251A1, “Detection of guanylyl and adenylyl cyclase activity” (The Regents of the University of Michigna, priority 2003, published 2004)
At least one structure is not confirmed: it was looked up by name or label, or the drawing left a doubt.

The chains behind the UniProt entries cited, without tags or fusion partners. Where a name states a change or a piece, a line headed by the entry shows the natural chain unless it says otherwise. Residues count along the entry.
UniProt P26769, 821-1090 K938E/D1018C limits assumed: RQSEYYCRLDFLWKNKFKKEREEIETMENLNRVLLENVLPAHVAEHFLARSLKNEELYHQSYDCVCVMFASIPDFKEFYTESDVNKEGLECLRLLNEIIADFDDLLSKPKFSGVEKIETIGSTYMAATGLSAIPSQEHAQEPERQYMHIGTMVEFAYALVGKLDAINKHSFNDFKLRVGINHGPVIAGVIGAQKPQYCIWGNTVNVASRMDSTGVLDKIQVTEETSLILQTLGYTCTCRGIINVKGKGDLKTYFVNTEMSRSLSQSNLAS
UniProt P30803, 398-765 limits assumed: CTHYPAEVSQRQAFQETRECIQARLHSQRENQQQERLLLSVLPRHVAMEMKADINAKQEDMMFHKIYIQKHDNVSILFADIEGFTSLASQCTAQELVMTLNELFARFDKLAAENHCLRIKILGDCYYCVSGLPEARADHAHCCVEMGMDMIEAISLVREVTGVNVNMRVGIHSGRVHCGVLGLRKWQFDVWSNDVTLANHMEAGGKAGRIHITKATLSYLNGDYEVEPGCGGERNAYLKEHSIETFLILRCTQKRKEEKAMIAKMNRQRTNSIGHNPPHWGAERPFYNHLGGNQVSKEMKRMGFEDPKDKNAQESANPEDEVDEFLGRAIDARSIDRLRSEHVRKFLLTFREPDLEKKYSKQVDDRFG
UniProt Q08828: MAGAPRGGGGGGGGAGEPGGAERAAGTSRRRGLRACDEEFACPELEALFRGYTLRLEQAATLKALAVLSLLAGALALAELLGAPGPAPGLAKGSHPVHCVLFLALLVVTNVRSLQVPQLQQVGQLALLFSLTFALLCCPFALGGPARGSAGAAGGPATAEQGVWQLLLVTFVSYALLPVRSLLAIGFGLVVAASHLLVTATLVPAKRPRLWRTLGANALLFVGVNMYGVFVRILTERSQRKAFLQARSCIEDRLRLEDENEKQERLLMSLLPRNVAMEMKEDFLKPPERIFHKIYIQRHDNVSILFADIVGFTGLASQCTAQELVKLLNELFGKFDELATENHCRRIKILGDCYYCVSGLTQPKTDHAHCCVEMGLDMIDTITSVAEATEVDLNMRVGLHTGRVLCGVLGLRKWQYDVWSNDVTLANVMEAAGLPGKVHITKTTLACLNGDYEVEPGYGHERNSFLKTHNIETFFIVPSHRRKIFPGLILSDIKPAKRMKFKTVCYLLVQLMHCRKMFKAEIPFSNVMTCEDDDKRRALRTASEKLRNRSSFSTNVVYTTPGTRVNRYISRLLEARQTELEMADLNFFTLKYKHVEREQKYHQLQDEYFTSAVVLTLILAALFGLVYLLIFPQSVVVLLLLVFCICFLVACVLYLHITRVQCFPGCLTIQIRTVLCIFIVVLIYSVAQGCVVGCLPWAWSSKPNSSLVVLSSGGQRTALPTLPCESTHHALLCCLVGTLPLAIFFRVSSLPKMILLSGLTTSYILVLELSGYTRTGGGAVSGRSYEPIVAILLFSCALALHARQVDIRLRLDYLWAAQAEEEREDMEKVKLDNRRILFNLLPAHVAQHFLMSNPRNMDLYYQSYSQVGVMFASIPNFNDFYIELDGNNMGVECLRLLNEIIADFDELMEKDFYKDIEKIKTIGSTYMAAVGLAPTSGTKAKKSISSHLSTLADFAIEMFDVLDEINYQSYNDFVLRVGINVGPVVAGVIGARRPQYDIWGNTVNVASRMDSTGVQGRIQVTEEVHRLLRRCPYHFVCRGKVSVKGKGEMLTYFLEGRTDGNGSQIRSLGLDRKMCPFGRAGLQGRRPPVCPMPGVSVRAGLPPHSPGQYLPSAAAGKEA

Assays:
[1] = molecular target: T1, purified, mutant adenylyl cyclase (VC1-ACGC) (UniProt P26769+P30803, D1018C/K938E); assay: fluorescence GC activity assay with BODIPY FL-GTPγS as substrate (Mg2+); format: biochemical; conditions: 100 μM forskolin, 1 μM VC1 and ACGC, 2 μM BODIPY FL-GTPγS, 10 mM MgCl2, 22° C.
T1 construct: The soluble intracellular (C1 and C2) domains of adenylyl cyclase were utilized; The mutations to enhance guanylyl cyclase activity are in the C2 domain

[2] = molecular target: T2, membrane-bound form of AC1 (adenylyl cyclase type I) expressed in sf9 cells (Homo sapiens, UniProt Q08828); assay: membrane cyclase fluorescence assay; format: biochemical
T2 construct: made in house; host or cells: sf9 cells
Protocol: The activity of a membrane-bound form of AC1 (adenylyl cyclase type I) expressed in sf9 cells was measured using the fluorescence assay described above.

In the case of C=C[C@@]1(C)CC(=O)[C@]2(O)[C@@]3(C)[C@@H](O)CCC(C)(C)[C@@H]3[C@H](O)[C@H](OC(C)=O)[C@@]2(C)O1 [forskolin], the “fluorescence following activation of the cyclase with activator” value [1] is reported as “time-dependent, linear increase in fluorescence” and the “dependence of AC1 activity on activator” value [2] is reported as “The activity was dependent on the AC activator forskolin”.
